# According to the supplement of paper PMC12067093, “Discovery and optimisation of a covalent ligand for TRIM25 and its application to targeted protein ubiquitination” (Chemical Science, 2025):
# Amino acid sequences for entries named in this document (tags omitted). A change or cut given only in a name is not applied to a line headed by its entry.
# UniProt O95182, whole entry: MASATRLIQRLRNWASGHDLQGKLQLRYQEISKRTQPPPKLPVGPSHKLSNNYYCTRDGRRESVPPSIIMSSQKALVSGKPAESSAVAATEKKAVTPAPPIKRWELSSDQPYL
# UniProt Q6ZNB6: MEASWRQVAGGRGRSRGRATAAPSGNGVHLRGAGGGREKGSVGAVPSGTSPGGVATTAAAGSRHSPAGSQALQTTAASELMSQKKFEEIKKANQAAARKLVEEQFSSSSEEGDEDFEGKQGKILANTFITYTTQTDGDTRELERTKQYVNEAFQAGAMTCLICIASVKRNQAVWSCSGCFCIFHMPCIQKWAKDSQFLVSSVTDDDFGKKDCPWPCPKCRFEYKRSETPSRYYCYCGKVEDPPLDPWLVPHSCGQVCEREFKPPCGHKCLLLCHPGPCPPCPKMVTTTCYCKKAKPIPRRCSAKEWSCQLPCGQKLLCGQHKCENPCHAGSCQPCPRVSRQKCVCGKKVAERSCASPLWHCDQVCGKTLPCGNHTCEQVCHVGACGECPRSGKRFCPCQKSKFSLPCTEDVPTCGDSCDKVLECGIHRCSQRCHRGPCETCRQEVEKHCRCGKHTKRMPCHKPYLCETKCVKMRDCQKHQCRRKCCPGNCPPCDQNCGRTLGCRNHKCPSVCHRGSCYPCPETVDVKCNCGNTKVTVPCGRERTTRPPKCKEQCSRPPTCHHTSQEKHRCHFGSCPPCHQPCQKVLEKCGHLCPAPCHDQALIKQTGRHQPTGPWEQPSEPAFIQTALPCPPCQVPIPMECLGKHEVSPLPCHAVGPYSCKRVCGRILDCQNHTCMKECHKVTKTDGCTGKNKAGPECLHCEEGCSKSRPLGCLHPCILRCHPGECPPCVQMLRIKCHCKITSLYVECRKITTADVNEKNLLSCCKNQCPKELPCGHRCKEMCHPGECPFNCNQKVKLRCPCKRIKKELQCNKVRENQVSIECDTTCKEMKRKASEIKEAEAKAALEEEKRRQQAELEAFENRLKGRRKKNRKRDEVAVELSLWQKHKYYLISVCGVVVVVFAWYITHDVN
# UniProt Q12986: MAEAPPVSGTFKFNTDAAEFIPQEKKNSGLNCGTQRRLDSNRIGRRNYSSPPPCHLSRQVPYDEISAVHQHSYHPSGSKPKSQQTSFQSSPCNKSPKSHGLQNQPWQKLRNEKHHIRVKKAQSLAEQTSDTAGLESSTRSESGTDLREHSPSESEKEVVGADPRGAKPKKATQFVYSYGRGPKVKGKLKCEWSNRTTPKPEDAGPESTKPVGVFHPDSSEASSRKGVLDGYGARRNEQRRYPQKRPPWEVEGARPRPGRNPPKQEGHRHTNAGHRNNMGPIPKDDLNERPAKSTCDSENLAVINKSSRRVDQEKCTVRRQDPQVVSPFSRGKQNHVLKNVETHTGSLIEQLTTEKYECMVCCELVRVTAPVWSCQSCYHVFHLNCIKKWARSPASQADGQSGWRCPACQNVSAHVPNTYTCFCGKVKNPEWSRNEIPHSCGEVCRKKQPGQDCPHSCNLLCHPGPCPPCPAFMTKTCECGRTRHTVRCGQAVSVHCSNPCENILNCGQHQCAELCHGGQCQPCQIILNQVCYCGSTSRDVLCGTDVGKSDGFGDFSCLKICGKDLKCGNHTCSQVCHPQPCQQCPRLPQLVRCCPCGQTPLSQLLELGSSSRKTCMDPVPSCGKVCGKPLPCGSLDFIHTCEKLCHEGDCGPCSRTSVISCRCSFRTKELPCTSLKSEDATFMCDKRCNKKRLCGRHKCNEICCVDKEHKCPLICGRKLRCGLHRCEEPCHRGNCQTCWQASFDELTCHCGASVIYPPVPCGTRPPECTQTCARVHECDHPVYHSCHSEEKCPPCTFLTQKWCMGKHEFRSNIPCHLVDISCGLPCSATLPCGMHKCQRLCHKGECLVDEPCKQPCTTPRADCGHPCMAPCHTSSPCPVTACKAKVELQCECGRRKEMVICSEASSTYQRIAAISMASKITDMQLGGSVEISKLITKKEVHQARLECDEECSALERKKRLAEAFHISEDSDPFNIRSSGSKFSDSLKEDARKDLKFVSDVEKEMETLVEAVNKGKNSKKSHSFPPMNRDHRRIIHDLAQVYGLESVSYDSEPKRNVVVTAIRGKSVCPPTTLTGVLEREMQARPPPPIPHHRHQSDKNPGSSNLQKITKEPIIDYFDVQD
# UniProt Q9Y6M9, whole entry: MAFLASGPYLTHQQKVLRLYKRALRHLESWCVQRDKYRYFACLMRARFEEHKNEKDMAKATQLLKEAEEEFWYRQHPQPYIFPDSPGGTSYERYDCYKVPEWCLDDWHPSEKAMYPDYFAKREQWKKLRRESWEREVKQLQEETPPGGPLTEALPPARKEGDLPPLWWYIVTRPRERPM
# UniProt Q92692, whole entry, looked up: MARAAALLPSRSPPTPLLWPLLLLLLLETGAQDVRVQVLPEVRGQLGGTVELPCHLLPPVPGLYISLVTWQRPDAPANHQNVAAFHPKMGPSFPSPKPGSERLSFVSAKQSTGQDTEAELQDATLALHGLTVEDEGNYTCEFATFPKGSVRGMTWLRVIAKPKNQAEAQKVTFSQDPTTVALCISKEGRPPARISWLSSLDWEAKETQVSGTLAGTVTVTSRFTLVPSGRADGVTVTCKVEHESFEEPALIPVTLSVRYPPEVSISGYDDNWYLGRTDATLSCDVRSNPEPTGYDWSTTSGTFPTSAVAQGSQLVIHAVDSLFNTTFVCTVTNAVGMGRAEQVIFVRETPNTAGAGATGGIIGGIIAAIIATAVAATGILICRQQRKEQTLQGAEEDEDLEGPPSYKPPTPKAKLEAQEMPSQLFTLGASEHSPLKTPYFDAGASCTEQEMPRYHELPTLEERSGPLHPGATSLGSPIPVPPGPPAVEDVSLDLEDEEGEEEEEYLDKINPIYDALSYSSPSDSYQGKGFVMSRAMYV
# UniProt Q8WX92, whole entry, looked up: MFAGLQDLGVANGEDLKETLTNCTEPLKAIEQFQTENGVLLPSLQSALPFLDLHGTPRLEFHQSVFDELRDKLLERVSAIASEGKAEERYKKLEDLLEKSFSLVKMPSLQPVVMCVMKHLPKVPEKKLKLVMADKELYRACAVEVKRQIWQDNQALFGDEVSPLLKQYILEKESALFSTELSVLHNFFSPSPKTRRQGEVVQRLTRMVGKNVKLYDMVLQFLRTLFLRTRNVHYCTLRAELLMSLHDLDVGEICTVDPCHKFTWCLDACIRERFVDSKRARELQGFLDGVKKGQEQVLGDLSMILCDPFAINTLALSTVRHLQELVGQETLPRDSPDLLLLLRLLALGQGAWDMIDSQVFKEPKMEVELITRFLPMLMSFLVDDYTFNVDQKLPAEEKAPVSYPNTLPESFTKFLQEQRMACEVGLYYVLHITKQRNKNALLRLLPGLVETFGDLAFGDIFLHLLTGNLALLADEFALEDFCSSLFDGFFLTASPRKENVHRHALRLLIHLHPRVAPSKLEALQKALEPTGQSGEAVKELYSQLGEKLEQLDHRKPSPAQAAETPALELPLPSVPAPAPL
# UniProt O75380, whole entry, looked up: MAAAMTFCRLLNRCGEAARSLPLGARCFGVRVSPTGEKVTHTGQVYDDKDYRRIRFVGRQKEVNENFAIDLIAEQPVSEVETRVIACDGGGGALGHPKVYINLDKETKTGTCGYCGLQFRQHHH
# UniProt Q96IV0: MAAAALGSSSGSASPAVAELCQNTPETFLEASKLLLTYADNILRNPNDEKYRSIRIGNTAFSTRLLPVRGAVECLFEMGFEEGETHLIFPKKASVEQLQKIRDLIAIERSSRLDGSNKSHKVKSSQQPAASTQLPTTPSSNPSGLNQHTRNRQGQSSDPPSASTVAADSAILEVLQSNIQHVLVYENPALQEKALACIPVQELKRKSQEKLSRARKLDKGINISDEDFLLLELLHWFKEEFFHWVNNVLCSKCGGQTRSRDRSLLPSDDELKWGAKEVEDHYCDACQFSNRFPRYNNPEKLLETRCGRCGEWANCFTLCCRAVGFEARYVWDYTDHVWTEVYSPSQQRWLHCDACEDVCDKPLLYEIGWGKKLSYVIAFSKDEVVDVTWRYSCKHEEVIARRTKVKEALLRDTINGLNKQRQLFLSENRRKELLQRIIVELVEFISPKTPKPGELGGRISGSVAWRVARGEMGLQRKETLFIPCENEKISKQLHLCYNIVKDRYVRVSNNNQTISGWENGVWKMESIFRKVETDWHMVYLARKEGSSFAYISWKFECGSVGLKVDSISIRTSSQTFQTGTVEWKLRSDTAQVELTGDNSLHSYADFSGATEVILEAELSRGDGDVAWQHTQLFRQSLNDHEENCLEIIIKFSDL
# UniProt Q9UN36: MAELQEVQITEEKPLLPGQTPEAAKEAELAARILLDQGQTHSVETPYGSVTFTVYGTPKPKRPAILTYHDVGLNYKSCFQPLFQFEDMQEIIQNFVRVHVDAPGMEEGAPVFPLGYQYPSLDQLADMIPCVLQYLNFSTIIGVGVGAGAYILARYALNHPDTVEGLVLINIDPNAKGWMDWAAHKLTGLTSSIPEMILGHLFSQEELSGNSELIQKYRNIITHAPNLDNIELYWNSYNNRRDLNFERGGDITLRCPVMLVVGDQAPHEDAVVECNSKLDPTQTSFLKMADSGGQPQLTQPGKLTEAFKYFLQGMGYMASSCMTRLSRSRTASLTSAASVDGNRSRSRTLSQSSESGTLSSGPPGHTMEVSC
# UniProt P30414: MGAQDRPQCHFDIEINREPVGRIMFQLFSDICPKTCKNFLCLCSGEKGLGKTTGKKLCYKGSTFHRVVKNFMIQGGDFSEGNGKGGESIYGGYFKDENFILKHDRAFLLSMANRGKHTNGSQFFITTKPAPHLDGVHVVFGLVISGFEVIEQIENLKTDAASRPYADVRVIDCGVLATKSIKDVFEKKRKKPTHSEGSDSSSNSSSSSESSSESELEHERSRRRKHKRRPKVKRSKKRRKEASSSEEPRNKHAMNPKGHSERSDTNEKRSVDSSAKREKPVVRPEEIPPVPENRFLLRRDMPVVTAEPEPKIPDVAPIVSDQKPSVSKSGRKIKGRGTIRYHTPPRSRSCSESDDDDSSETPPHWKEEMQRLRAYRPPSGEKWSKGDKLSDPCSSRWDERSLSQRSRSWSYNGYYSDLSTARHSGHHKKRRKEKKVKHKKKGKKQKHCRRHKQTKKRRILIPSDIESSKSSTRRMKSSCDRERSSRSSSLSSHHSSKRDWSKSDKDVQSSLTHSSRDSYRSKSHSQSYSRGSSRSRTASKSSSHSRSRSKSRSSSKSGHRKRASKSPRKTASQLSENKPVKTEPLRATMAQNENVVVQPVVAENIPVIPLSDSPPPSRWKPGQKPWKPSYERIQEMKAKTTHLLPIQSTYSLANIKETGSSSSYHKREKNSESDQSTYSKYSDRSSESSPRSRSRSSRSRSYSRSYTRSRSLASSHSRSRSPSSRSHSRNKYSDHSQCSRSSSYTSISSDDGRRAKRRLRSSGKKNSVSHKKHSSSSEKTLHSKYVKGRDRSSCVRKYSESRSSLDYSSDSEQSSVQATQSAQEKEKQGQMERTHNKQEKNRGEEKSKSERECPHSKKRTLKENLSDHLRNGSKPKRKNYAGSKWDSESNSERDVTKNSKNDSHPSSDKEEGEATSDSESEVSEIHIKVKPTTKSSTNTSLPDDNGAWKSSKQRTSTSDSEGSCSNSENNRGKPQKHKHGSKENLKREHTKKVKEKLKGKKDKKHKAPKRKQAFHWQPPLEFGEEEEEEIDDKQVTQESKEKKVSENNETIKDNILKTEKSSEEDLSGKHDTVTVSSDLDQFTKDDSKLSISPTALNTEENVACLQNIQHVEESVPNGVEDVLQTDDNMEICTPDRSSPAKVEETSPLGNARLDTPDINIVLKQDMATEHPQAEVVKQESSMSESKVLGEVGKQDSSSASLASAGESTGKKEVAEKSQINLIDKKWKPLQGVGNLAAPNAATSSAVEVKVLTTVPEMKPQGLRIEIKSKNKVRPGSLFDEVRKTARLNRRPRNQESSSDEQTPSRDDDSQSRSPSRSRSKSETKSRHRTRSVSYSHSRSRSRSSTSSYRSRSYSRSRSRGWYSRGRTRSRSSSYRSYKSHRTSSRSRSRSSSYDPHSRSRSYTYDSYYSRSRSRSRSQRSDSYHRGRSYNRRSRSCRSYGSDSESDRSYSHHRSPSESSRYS
# UniProt P51970, whole entry, looked up: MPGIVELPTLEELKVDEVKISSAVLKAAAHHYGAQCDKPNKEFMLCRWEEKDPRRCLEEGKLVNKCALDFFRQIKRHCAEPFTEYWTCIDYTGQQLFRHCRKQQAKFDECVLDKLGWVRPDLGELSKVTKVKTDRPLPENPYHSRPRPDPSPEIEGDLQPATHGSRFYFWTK
# UniProt Q15653: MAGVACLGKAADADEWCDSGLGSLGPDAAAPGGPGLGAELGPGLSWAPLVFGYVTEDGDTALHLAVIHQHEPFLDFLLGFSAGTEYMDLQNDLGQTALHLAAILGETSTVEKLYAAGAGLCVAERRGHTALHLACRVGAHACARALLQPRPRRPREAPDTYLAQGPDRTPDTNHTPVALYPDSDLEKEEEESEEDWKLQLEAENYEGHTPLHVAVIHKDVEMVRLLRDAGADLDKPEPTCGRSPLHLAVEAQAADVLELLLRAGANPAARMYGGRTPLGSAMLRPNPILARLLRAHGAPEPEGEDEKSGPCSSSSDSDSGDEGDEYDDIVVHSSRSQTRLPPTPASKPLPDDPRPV
# This is one part of the list.
# Compound: Cc1cc(ccc1-c1ccccc1)C(=O)N1CCCN(CC1)C(=O)CCl [compound 10]
# Test: probe-labelled cysteine peptide fold change vs DMSO (competition) (log2 fold change); higher = less target engagement (more negative = stronger competition)
# Conditions: 10 µM; THP-1; incubation time: 4 h
# 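Note: competitive profiling in live THP-1 cells: cysteine peptides tagged with an iodoacetamide desthiobiotin (IA-DTB) probe, intensity after compound treatment relative to DMSO-treated cells.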
row,Target,probe-labelled cysteine peptide fold change
1,NCKAP1L_P55160_942_EVFSSHCPFLMGPIECLK (UniProt P55160),0.112
2,NCKAP1L_P55160_612_QTSNCVLEICAEQR (UniProt P55160),0.115
3,NCKIPSD_Q9NZQ3_429_CYLEELLHILTDADPEVCKK (UniProt Q9NZQ3),-0.207
4,NCSTN_Q92542_586_EQCQDPSKVPSENK (UniProt Q92542),-0.327
5,NIF3L1_Q9GZT8_213_INLNCTQK (UniProt Q9GZT8),0.0939
6,NFIC_P08651_88_DIRPECR (UniProt P08651),0.0779
7,NDUFA7_O95182_55_LSNNYYCTR (UniProt O95182),-0.188
8,NFXL1_Q6ZNB6_713_SRPLGCLHPCILR (UniProt Q6ZNB6),-0.0587
9,NDUFS1_P28331_564_DCFIIYQGHHGDVGAPIADVILPGAAYTEK (UniProt P28331),0.0878
10,NFX1_Q12986_778_VHECDHPVYHSCHSEEK (UniProt Q12986),0.0815
11,NEDD1_Q8NHV4_607_FIQNMIQETLDDFREACHR (UniProt Q8NHV4),0.374
12,NDUFB9_Q9Y6M9_103_VPEWCLDDWHPSEK (UniProt Q9Y6M9),0.169
13,NEK9_Q8TD19_696_LAMTPTERPHGSDICTSWPR (UniProt Q8TD19),0.0982
14,NDUFV1_P49821_238_LKPPFPADVGVFGCPTTVANVETVAVSPTICR (UniProt P49821),-0.133
15,NECTIN2_Q92692_283_TDATLSCDVR (UniProt Q92692),-0.168
16,NFX1_Q12986_832_SNIPCHLVDISCGLPCSATLPCGMHK (UniProt Q12986),0.0656
17,NIPBL_Q6KC79_1940_ILNITDVVAACR (UniProt Q6KC79),0.0741
18,NKRF_O15226_424_SSQCHTGSSPR (UniProt O15226),0.0137
19,NFATC3_Q12968_537_VLEIPLLPENNMSASIDCAGILK (UniProt Q12968),-0.0447
20,NDUFV1_P49821_206_GAGAYICGEETALIESIEGK (UniProt P49821),-0.0696

row,Target,probe-labelled cysteine peptide fold change
1,NISCH_Q9Y2I1_185_TDLGHILDFTCR (UniProt Q9Y2I1),0.0772
2,NELFB_Q8WX92_141_ACAVEVK (UniProt Q8WX92),-0.158
3,NFATC1_O95644_383_GGFCDQYLAVPQHPYQWAK (UniProt O95644),-0.223
4,NCOA4_Q13772_244_ACNFFNNVGGNLK (UniProt Q13772),0.0261
5,NFX1_Q12986_852_GECLVDEPCK (UniProt Q12986),-0.0782
6,NDUFS6_O75380_87_VIACDGGGGALGHPK (UniProt O75380),-0.147
7,NISCH_Q9Y2I1_403_SIGSLPCLEHVSLLNNPLSIIPDYR (UniProt Q9Y2I1),0.0347
8,NIPBL_Q6KC79_304_GSRPPLILQSQSLPCSSPR (UniProt Q6KC79),-0.0738
9,NGLY1_Q96IV0_283+286_EVEDHYCDACQFSNR (UniProt Q96IV0),0.0817
10,NCOA3_Q9Y6Q9_716_DTSSITSCGDGNVVK (UniProt Q9Y6Q9),-0.387
11,NDRG2_Q9UN36_255_CPVMLVVGDQAPHEDAVVECNSK (UniProt Q9UN36),0.151
12,NKTR_P30414_32_IMFQLFSDICPK (UniProt P30414),-0.0767
13,NF1_P21359_1486_RFFLDIASDCPTSDAVNHSLSFISDGNVLALHR (UniProt P21359),0.0812
14,NDUFA8_P51970_36_AAAHHYGAQCDKPNK (UniProt P51970),-0.154
15,NFX1_Q12986_479_TCECGR (UniProt Q12986),0.0222
16,NFKBIB_Q15653_135_GHTALHLACR (UniProt Q15653),0.255
17,NDUFA8_P51970_36_AAAHHYGAQCDK (UniProt P51970),-0.0974
18,NEDD9_Q14511_46_KGDILTVIEQNTGGLEGWWLCSLHGR (UniProt Q14511),0.116
19,NGLY1_Q96IV0_74_GAVECLFEMGFEEGETHLIFPK (UniProt Q96IV0),0.166

# Same assay, conditions: 50 µM; THP-1; incubation time: 4 h
row,Target,probe-labelled cysteine peptide fold change
1,NCKAP1L_P55160_942_EVFSSHCPFLMGPIECLK (UniProt P55160),0.0947
2,NCKAP1L_P55160_612_QTSNCVLEICAEQR (UniProt P55160),-0.354
3,NCKIPSD_Q9NZQ3_429_CYLEELLHILTDADPEVCKK (UniProt Q9NZQ3),-0.598
4,NCSTN_Q92542_586_EQCQDPSKVPSENK (UniProt Q92542),-0.479
5,NIF3L1_Q9GZT8_213_INLNCTQK (UniProt Q9GZT8),-0.215
6,NFIC_P08651_88_DIRPECR (UniProt P08651),0.279
7,NDUFA7_O95182_55_LSNNYYCTR (UniProt O95182),0.023
8,NFXL1_Q6ZNB6_713_SRPLGCLHPCILR (UniProt Q6ZNB6),-0.194
9,NDUFS1_P28331_564_DCFIIYQGHHGDVGAPIADVILPGAAYTEK (UniProt P28331),-0.0788
10,NFX1_Q12986_778_VHECDHPVYHSCHSEEK (UniProt Q12986),-0.146
11,NEDD1_Q8NHV4_607_FIQNMIQETLDDFREACHR (UniProt Q8NHV4),0.223
12,NDUFB9_Q9Y6M9_103_VPEWCLDDWHPSEK (UniProt Q9Y6M9),0.101
13,NEK9_Q8TD19_696_LAMTPTERPHGSDICTSWPR (UniProt Q8TD19),0.111
14,NDUFV1_P49821_238_LKPPFPADVGVFGCPTTVANVETVAVSPTICR (UniProt P49821),0.234
15,NECTIN2_Q92692_283_TDATLSCDVR (UniProt Q92692),-0.223
16,NFX1_Q12986_832_SNIPCHLVDISCGLPCSATLPCGMHK (UniProt Q12986),-0.155
17,NIPBL_Q6KC79_1940_ILNITDVVAACR (UniProt Q6KC79),0.188
18,NKRF_O15226_424_SSQCHTGSSPR (UniProt O15226),-0.397
19,NFATC3_Q12968_537_VLEIPLLPENNMSASIDCAGILK (UniProt Q12968),-0.0788
20,NDUFV1_P49821_206_GAGAYICGEETALIESIEGK (UniProt P49821),-0.0757

row,Target,probe-labelled cysteine peptide fold change
1,NISCH_Q9Y2I1_185_TDLGHILDFTCR (UniProt Q9Y2I1),0.109
2,NELFB_Q8WX92_141_ACAVEVK (UniProt Q8WX92),-0.000625
3,NFATC1_O95644_383_GGFCDQYLAVPQHPYQWAK (UniProt O95644),-0.405
4,NCOA4_Q13772_244_ACNFFNNVGGNLK (UniProt Q13772),-0.294
5,NFX1_Q12986_852_GECLVDEPCK (UniProt Q12986),-0.417
6,NDUFS6_O75380_87_VIACDGGGGALGHPK (UniProt O75380),-0.117
7,NISCH_Q9Y2I1_403_SIGSLPCLEHVSLLNNPLSIIPDYR (UniProt Q9Y2I1),0.365
8,NIPBL_Q6KC79_304_GSRPPLILQSQSLPCSSPR (UniProt Q6KC79),-0.0903
9,NGLY1_Q96IV0_283+286_EVEDHYCDACQFSNR (UniProt Q96IV0),-0.301
10,NCOA3_Q9Y6Q9_716_DTSSITSCGDGNVVK (UniProt Q9Y6Q9),-0.458
11,NDRG2_Q9UN36_255_CPVMLVVGDQAPHEDAVVECNSK (UniProt Q9UN36),-0.291
12,NKTR_P30414_32_IMFQLFSDICPK (UniProt P30414),-0.0342
13,NF1_P21359_1486_RFFLDIASDCPTSDAVNHSLSFISDGNVLALHR (UniProt P21359),-0.305
14,NDUFA8_P51970_36_AAAHHYGAQCDKPNK (UniProt P51970),-0.0103
15,NFX1_Q12986_479_TCECGR (UniProt Q12986),0.0969
16,NFKBIB_Q15653_135_GHTALHLACR (UniProt Q15653),0.187
17,NDUFA8_P51970_36_AAAHHYGAQCDK (UniProt P51970),0.565
18,NEDD9_Q14511_46_KGDILTVIEQNTGGLEGWWLCSLHGR (UniProt Q14511),-0.21
19,NGLY1_Q96IV0_74_GAVECLFEMGFEEGETHLIFPK (UniProt Q96IV0),0.0369
